Measurements: US6262073A, “Pharmaceutical methods of use of 5-substituted and 5,5 disubstituted-3,4-dihydroxy-2(5H)-furanones” (Oxis International Inc., priority 2000, dated 2001)
For at least one compound, name, drawing or mass did not settle the structure.

System: Lipid peroxidation (rat liver microsomes)
Assay: Lipid peroxidation screen (LPO), CCl4-induced, liver microsomes
Assay type: biochemical
Conditions: 300 μM
Procedure: The compounds of the invention were screened for their anti-inflammatory activity using a series of in vitro tests the details of which are given below. The activity of various compounds against 5-lipoxygenase, cycloxygenase-1, cycloxygenase-2 and lipid peroxidase was evaluated. Results of the screening procedures are included in TABLE I, and the activity against 5-lipoxygenase at a test concentration of 1 μM in Table II.
Lipid peroxidation is a consequence of various stimuli, including reactive free radicals. Polyunsaturated fatty acids associated with plasma membranes are degraded due to enzymatic induction by reactive agents such as CCl4, leading to cellular damage. Briefly, microsomes are prepared from rat livers and the protein concentration is determined according to the method of D. Mansuy et al., Biochem. Biophys. Res. Comm. 135:1015-1021(1986). A reaction mixture consisting of 2 mg of the microsomal preparation, an NADPH generating system, 20 mM CCl4 and test compound are incubated for 12 minutes at 37° C. The reaction is terminated by the addition of a mixture of thiobarbituric acid and trichloroacetic acid. The absorbance is read at 535 nm and is proportional to the concentration of malondialdehyde. Compounds are screened at 300 μM.

O=C1OC(CCOc2ccc3ccccc3n2)C(O)=C1O (stereo not shown) [Example 23, 3,4-Dihydroxy-5-[2-(quinoline-2-oxy)ethyl]-2(5H)-furanone]
LPO percent inhibition: 69%
